Assay results taken from patent publication US20180237831A1.
No constants are given. Whether binding was seen depends on the method and setting. Some results given as binding are weak or reduced against the parent protein; the word gives no strength.

Biological target: T1, chromobox protein 8 (CBX8) (UniProt Q9HC52)
T1 sequence (looked up): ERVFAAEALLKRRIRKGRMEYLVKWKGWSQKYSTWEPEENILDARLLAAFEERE
Test: crosslinking competition: 5 mM SK(me3)LAF peptide against CBX peptide-ssDNA on CBX8, SDS-PAGE

- binding: binds
B1: SK(me3)LAF peptide (peptide)
peptide: SKLAF
modifications: K(me3): trimethyl-lysine at position 2
